The target of the test is T1, B cell lymphoma/leukemia 10 (BCL10) (human (endogenous in Jurkat)) (UniProt O95999).
T1 sequence: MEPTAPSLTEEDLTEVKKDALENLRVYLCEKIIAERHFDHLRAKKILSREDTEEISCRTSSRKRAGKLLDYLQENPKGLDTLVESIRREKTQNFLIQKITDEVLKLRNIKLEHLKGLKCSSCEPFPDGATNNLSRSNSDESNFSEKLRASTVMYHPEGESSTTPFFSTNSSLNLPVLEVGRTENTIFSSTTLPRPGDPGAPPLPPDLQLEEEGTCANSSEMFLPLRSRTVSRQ
The test is described as follows: affinity purification with mass spectrometry; anti-BCL10 (C-17) IP from CK1α KO Jurkat T cells reconstituted with CK1α WT, untreated or P/I stimulated 20 min; 1% NP40 buffer; on-bead digestion, quantitative LC-MS/MS (n = 3).

Sequences of proteins named here, by UniProt entry; tags and fusion partners are left off.
UniProt Q9UDY8: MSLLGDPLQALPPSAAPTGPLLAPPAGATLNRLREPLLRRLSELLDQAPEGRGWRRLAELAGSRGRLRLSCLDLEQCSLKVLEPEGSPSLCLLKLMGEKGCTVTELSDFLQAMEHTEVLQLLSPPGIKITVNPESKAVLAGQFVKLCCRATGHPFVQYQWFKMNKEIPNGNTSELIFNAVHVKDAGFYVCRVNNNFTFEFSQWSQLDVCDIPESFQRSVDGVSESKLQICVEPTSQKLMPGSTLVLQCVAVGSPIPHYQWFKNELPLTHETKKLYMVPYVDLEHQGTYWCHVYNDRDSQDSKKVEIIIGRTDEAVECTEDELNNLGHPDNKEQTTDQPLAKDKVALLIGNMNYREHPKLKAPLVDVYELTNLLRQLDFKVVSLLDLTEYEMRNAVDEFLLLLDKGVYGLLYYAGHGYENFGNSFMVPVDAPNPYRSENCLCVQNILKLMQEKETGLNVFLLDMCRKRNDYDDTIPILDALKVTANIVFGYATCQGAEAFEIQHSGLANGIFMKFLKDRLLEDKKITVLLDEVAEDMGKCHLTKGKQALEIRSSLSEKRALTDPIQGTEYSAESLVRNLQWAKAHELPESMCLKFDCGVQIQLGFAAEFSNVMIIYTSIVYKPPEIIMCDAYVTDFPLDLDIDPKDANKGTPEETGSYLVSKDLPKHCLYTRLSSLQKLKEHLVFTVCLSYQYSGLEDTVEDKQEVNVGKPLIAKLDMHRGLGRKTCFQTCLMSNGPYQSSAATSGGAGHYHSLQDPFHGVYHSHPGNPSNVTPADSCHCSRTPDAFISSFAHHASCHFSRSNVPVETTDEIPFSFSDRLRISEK

Results are given in words; binding and its absence hold for the method and conditions named. Binding seen in cells or lysates may run through a third protein. These calls come from enrichment with a bait or labelling near it, and not all partners need be listed.

As for “Mucosa-associated lymphoid tissue protein 1 (MALT1) (from UniProt Q9UDY8 1-824)”, the binding entry was “binds”.

The record behind these values is PMC8803816.
